The list shows a part of the results. Further columns of the screen follow, without active or inactive calls. The list favours compounds with an active or inconclusive main result. Potencies come from curve fits of mixed quality, noted in brackets.
Assay: qHTS Assay for Lipid Storage Modulators in Drosophila S3 Cells;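 for cell number change: cells counted by Cell Tracker Red CMTPX staining in the red channel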
Conditions: BODIPY lipid droplet fluorescence, 18-24 h; for cell number change: measured here: cell count max response, cells fed with added oleic acid
How it was run: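 Drosophila S3 cells got compounds at several concentrations plus oleic acid (400 uM solution). Laser-scanning cytometry with 488 nm excitation read lipid droplets at 500-530 nm and cells at 575-640 nm. Percent activity was relative to 20 uM Triacsin C.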

[1] = measured here: lipid fluorescence (Fed channel) AC50, cells fed with added oleic acid
[2] = measured here: cell number channel AC50, cells fed with added oleic acid

| Structure (SMILES) | cell number change [%] | AC50 [1] | AC50 [2] |
| --- | --- | --- | --- |
| Cc1ccc(/C=N/NC(=O)c2c(-c3ccccc3)noc2C)c(O)c1 | 4.91 | 29.1 µM [rising, single point] |  |
| CC1CC(C)CN(C(=O)C2CC(=O)N(c3ccc(F)cc3)C2)C1 (configuration not stated) | 7.56 |  |  |
| COc1ccc(OC)c(NC(=O)CC2SC(=NCc3ccccc3)NC2=O)c1 (configuration not stated) | -8.06 | 6.51 µM [rising, single point] | 0.13 µM [rising, full curve, poor fit] |
| O=C(CSc1cccc[n+]1[O-])c1ccc(Cl)cc1 | -1.14 | 6.51 µM [rising, single point] |  |
| Cc1ccc(Cn2c(Sc3nnc(C)s3)nc3c2c(=O)[nH]c(=O)n3C)cc1 | 33.5 | 0.731 µM [rising, partial curve, poor fit] | 32.6 µM [rising, single point] |
| Cc1c(C)c2ccc(OCC(=O)NCCCn3ccnc3)c(C)c2oc1=O | -6.37 | 6.51 µM [falling, partial curve, poor fit] |  |
| Cn1nnnc1Sc1ncnc2scc(-c3ccc(Cl)cc3)c12 | 3.44 | 6.51 µM [rising, single point] |  |
| COc1ccc(C(=O)N/N=C/c2ccc(OC)c(COc3c(F)c(F)cc(F)c3F)c2)cc1 | 3.47 | 23.1 µM [falling, single point] |  |
| COc1ccc(-n2c(C)cc(C(=O)CSc3nnc(-c4cccs4)o3)c2C)cc1 | -31.1 | 0.164 µM [rising, full curve, poor fit] | 29.1 µM [falling, single point] |
| CCn1c2ccccc2c2cc(N)ccc21 | -0.252 |  |  |
| N#Cc1ccccc1CSc1nc(O)cc(=O)[nH]1 | -4.5 |  |  |
| Cc1cnc(C(=O)OCC(=O)c2ccccc2)cn1 | -11 |  |  |
| CC(C)C(=O)N(c1ccc(F)cc1)C1C=CS(=O)(=O)C1 (configuration not stated) | -19.9 | 8.2 µM [falling, partial curve] |  |
| Cc1nn(-c2ccccc2)c(Cl)c1/C=N/NC(=O)c1ccn[nH]1 | 3.3 | 0.116 µM [rising, single point] |  |
| CCn1cc(CNC(=O)c2cccc([N+](=O)[O-])c2)cn1 | -66.7 | 29.1 µM [rising, single point] | 20.6 µM [falling, single point] |
| Cc1ccc(C(=O)C2=C(O)C(=O)N(CCN3CCOCC3)C2c2ccccn2)o1 (configuration not stated) | -6.61 |  |  |
| O=C(O)CCSc1nnc(COc2ccc([N+](=O)[O-])cc2)n1-c1ccccc1 | -0.12 | 1.3 µM [falling, full curve] |  |
| N=c1c2c3c(sc2ncn1Nc1ccccc1)CCC3 | 17.7 | 1.03 µM [rising, partial curve] |  |
| N#C/C(=C(/O)CN1CCN(c2ccccc2F)CC1)c1nc(-c2ccc(Cl)cc2)cs1 | -36.8 |  | 29.1 µM [falling, single point] |
| Cc1ccc(N=Cc2ccc(N(C)C)cc2)cc1 | 14.8 |  |  |
| CC1CCCN(S(=O)(=O)c2ccc(S(=O)(=O)N3CCC4(CC3)OCCO4)cc2)C1 (configuration not stated) | 14.4 | 0.0651 µM [falling, full curve, poor fit] |  |

A section from further up, for reference:

| Structure (SMILES) | cell number change [%] | AC50 [1] | AC50 [2] |
| --- | --- | --- | --- |
| Cc1ccc(N=Cc2ccc(N(C)C)cc2)cc1 | 14.8 |  |  |
| CC1CCCN(S(=O)(=O)c2ccc(S(=O)(=O)N3CCC4(CC3)OCCO4)cc2)C1 (configuration not stated) | 14.4 | 0.0651 µM [falling, full curve, poor fit] |  |

More entries follow.

| Structure (SMILES) | cell number change [%] | AC50 [1] | AC50 [2] |
| --- | --- | --- | --- |
| CCOc1ncccc1C(=O)Nc1ccc2nc(C)sc2c1 | -1.25 | 1.16 µM [rising, single point] |  |
| Cc1ccnc(NS(=O)(=O)c2ccc(NC(=O)c3cc(-c4ccc(Br)cc4)nc4ccccc34)cc2)n1 | -40.8 | 14.6 µM [falling, partial curve, poor fit] | 29.1 µM [falling, single point] |
| O=S(=O)(NCc1cccs1)NCc1ccccc1F |  |  | 1.84 µM [falling, single point] |
| CC/C(O)=C1\C(=O)CC(c2ccccc2)CC1=NCCc1c(C)[nH]c2ccc(C)cc12 (configuration not stated) | 33.1 |  | 2.59 µM [rising, partial curve] |
| CCN(CC(=O)NC1CCS(=O)(=O)C1)C(=O)c1ccc(S(=O)(=O)N(CC)CC)cc1 (configuration not stated) | 3.51 |  |  |
| COc1ccc(COC(=O)C2=C(C)NC(=O)NC2c2ccccc2OC(C)C)cc1 (configuration not stated) | -0.73 | 29.1 µM [falling, single point] |  |
| CCOC(=O)c1ccc(N2C(=O)c3n[nH]c(-c4ccco4)c3C2c2ccc([N+](=O)[O-])cc2)cc1 (configuration not stated) | -15.6 | 14.6 µM [falling, partial curve, poor fit] |  |
| O=C(NCCCNC(=O)c1cnccn1)c1cccc(F)c1 | 5.26 | 5.62 µM [falling, single point] |  |
| CN(C(=S)Nc1ccc(SC(F)F)cc1)C(c1ccccc1)c1ccccc1 | 51.1 |  |  |
| COc1ccccc1-c1ccc(/C=C2/C=C(CC(C)C)OC2=O)o1 | -21.5 | 29.1 µM [falling, single point] |  |
| CC(=O)NC1(C(F)(F)F)N=C2SCCN2C1=O (configuration not stated) |  | 0.731 µM [falling, single point] | 0.58 µM [falling, single point] |
| COc1ccc(C2CC3(O)NC(=O)C(C#N)(C3C)C2(C#N)C#N)cc1 (configuration not stated) | 17.5 |  | 4.11 µM [rising, single point] |
| COc1ccc(NC(=O)CCCC(=O)OCC(F)(F)C(F)F)cc1 | -35.6 | 5.8 µM [falling, partial curve] | 0.206 µM [falling, full curve, poor fit] |
| COc1ccc(CCN(C)C2CCCN(S(=O)(=O)c3ccccc3)C2)cc1OC (configuration not stated) | 18.1 |  |  |
| CC(C)c1nc2sc3c(=O)[nH]c(=S)[nH]c3c2c2c1CCCC2 | 7.26 |  | 0.00651 µM [falling, full curve, poor fit] |
| O=C(COc1ccc2c(-c3ccccc3)cc(=O)oc2c1)NCCN1CCOCC1 | 26 |  |  |
| CC(Sc1nccn1C)C(=O)c1ccc(Br)cc1 (configuration not stated) |  | 16.4 µM [falling, partial curve] |  |
| Cc1ccc(S(=O)(=O)N2CCC(NC(=O)c3cccnc3)CC2)cc1Cl | -7.69 | 29.1 µM [falling, single point] |  |
| O=C(Cc1ccccc1F)OCC(=O)N1CCc2ccccc21 | -14.6 |  | 6.51 µM [rising, partial curve, poor fit] |
| CC(CNC(=O)CN1C(=O)C(=O)N(C2CCCC2)C1=O)c1ccccc1 (configuration not stated) | 12.2 | 29.1 µM [rising, single point] |  |
| Cc1ccccc1CSc1nnc(C)n1N | 10.2 |  |  |

| Structure (SMILES) | cell number change [%] | AC50 [1] | AC50 [2] |
| --- | --- | --- | --- |
| COc1ccc(NCc2cc(=O)oc3cc(NC(C)=O)ccc23)cc1 | 24.1 | 7.31 µM [rising, partial curve] |  |
| Cc1cccc2sc(N(CCCN(C)C)C(=O)c3ccc(C(=O)c4ccccc4)cc3)nc12 |  | 6.51 µM [rising, single point] |  |
| Cc1ccc(C)c(NC(=S)N2CCN(CCO)CC2)c1 | -46.3 |  | 1.46 µM [falling, full curve] |
| O=C(O)c1ccccc1OCC1CCCO1 (configuration not stated) | 0.42 | 29.1 µM [falling, single point] |  |
| CN(C)S(=O)(=O)Oc1ccsc1C(=O)Nc1cccc(Cl)c1 | -11.2 | 3.66 µM [falling, partial curve, poor fit] |  |
| Cn1c(-c2c(N)n(C3CCCC3)c3nc4ccccc4nc23)nc2ccccc21 | -0.305 | 29.1 µM [falling, single point] | 0.103 µM [falling, partial curve, poor fit] |
| C=CCc1ccc(OCc2ccc(C(=O)Nc3ccc(NC(C)=O)cc3)o2)c(OC)c1 | -49 | 20.6 µM [falling, single point] | 29.1 µM [falling, single point] |
| CCCC1(c2ccccc2)NC(=O)N(CC(=O)c2[nH]c(C)c(C(=O)OCC)c2C)C1=O (configuration not stated) |  | 29.1 µM [falling, single point] |  |
| Cn1cc(CN2CCC[C@H]2CO)c(-c2cccc(Cl)c2)n1 | 34.4 | 0.259 µM [rising, full curve, poor fit] | 8.2 µM [rising, partial curve] |
| Cc1cnc(NC(=O)CC2CCCC2)s1 | -2.49 | 0.116 µM [rising, full curve, poor fit] | 2.31 µM [rising, partial curve, poor fit] |
| CC(=O)N/C(=N\c1nc(C)cc(C)n1)Nc1ccccc1Cl | -9.72 | 0.58 µM [falling, single point] |  |
| CC(C)=CCCC(C)CN1CCC(n2nccc2NC(=O)c2cccnc2)CC1 (configuration not stated) | 9.18 | 11.6 µM [rising, partial curve, poor fit] |  |
| O=C(NCN1CCN(c2ccccn2)CC1)c1cnccn1 | -18.3 |  |  |
| CCCOc1ccc(C(=O)NNC(=S)NC(=O)c2cccs2)cc1 | -7.26 |  |  |
| Cc1ccc(Nc2cc(C)c3c(O)cccc3n2)cc1C | -32.3 | 0.58 µM [falling, full curve] | 29.1 µM [falling, single point] |
| CCCn1c(SCC(=O)Nc2cccc(Cl)c2Cl)n[nH]c1=O | -27.2 |  |  |
| CCCCOc1ccc(N=Cc2ccc[nH]2)cc1 | 9.38 | 25.9 µM [falling, single point] |  |
| CCN(CC)CCCNc1nc(-n2nc(C)cc2C)nc2sc3c(c12)CC(C)(C)OC3 | 24.7 | 4.61 µM [rising, partial curve, poor fit] | 1.64 µM [rising, partial curve, poor fit] |
| COc1ccc2c(c1)C(=NNc1ccc(C(=O)O)cc1)c1cc(OC)ccc1-2 | 12.1 |  |  |
| COc1cc(/C=C(\NC(=O)c2ccccc2)C(=O)N2CC3CC(C2)c2cccc(=O)n2C3)cc(OC)c1OC (configuration not stated) | -1.45 | 0.00517 µM [falling, full curve, poor fit] |  |

— PubChem BioAssay AID2685 (National Center for Advancing Translational Sciences (NCATS), 2010)
